Laboratory results: PubChem BioAssay AID504791 (Drosophila RNAi Screening Center, 2011)
The screen tested about 23,000 reagents; shown is a random part of those that have a named target and a result. Over the whole deposit, 199 (0.86%) were called active. 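Plate-scaled ratios behind the calls are not deposited; printed light signals are raw; many rows marked increased or decreased are still called inactive.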 A plus sign joins genes that one reagent is predicted to hit. The record does not give: the direction of the score.

Aim: 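Genes of the fly required for silencing by miRNA, siRNA or endo-siRNA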 (primary screen)
Cells: Drosophila S2-derived reporter cells
Reagent: long dsRNA against Drosophila genes, about 150-250 ng dsRNA per well (siRNA assay); about 80-120 ng (miRNA assay)
Duration: about 5 days (siRNA assay); about 4 days (miRNA assay)
Treatment: copper sulfate induction of reporters: 25 µM (siRNA assay); 200 mM stated (miRNA assay), 1-2 days before reading
Measured: 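Dual luciferase assay: Renilla to firefly signal ratio in each well, scaled to the mean ratio of its plate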
Hit rule: 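First-pass picks had plate-scaled ratios over 1.5 for the siRNA assay, over 1.6 for the miRNA assay, or under 0.6; two distinct dsRNAs had to score alike on retest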

Mettl14 [DRSC03073] — stable assay Renilla, run 1 (luminescence) = 1.62e5; stable assay firefly, run 1 (luminescence) = 2.72e5; Outcome = inactive
Agps [DRSC05984] — stable assay Renilla, run 1 (luminescence) = 5906; stable assay firefly, run 1 (luminescence) = 3.10e5; Outcome = inactive
Gnptab [DRSC07057] — stable assay Renilla, run 1 (luminescence) = 7951; stable assay firefly, run 1 (luminescence) = 3.42e5; Outcome = inactive
lbm [DRSC07643] — stable assay Renilla, run 1 (luminescence) = 6318; stable assay firefly, run 1 (luminescence) = 3.62e5; Outcome = inactive
EMC3 [DRSC02989] — stable assay Renilla, run 1 (luminescence) = 6902; stable assay firefly, run 1 (luminescence) = 5.27e5; Outcome = inactive
myo [DRSC17174] — stable assay Renilla, run 1 (luminescence) = 6686; stable assay firefly, run 1 (luminescence) = 3.37e5; Outcome = inactive
Mocs1 [DRSC11225] — stable assay Renilla, run 1 (luminescence) = 4840; stable assay firefly, run 1 (luminescence) = 3.41e5; Outcome = inactive
CG13998 [DRSC02330] — stable assay Renilla, run 1 (luminescence) = 8989; stable assay firefly, run 1 (luminescence) = 5.69e5; Outcome = inactive
phtm [DRSC20237] — stable assay Renilla, run 1 (luminescence) = 6255; stable assay firefly, run 1 (luminescence) = 4.98e5; Outcome = inactive
Rab3GAP1 [DRSC00291] — stable assay Renilla, run 1 (luminescence) = 7538; stable assay firefly, run 1 (luminescence) = 4.85e5; Outcome = inactive
Rab3GAP1 [DRSC00703] — stable assay Renilla, run 1 (luminescence) = 7431; stable assay firefly, run 1 (luminescence) = 4.09e5; Outcome = inactive
Helz [DRSC11072] — stable assay Renilla, run 1 (luminescence) = 9355; stable assay firefly, run 1 (luminescence) = 2.94e5; Outcome = inactive
CG13947 [DRSC00365] — stable assay Renilla, run 1 (luminescence) = 6474; stable assay firefly, run 1 (luminescence) = 4.76e5; Outcome = inactive
CG13947 [DRSC25465] — miRNA reporter change = reporter ratio lowered past the hit cutoff; Outcome = inactive
CG7519 [DRSC11834] — stable assay Renilla, run 1 (luminescence) = 7600; stable assay firefly, run 1 (luminescence) = 4.23e5; Outcome = inactive
CG17159 + CG17162 [DRSC20899] — stable assay Renilla, run 1 (luminescence) = 6795; stable assay firefly, run 1 (luminescence) = 3.91e5; Outcome = inactive
CG17159 + CG17162 [DRSC20900] — stable assay Renilla, run 1 (luminescence) = 5639; stable assay firefly, run 1 (luminescence) = 4.31e5; Outcome = inactive
DCTN3-p24 [DRSC04592] — stable assay Renilla, run 1 (luminescence) = 90139; stable assay firefly, run 1 (luminescence) = 2.96e5; Outcome = inactive
CG30379 [DRSC05070] — stable assay Renilla, run 1 (luminescence) = 4907; stable assay firefly, run 1 (luminescence) = 4.42e5; Outcome = inactive

Targets listed so far whose gene name starts with M or m:
Mettl14 [DRSC03073] — stable assay Renilla, run 1 (luminescence) = 1.62e5; stable assay firefly, run 1 (luminescence) = 2.72e5; Outcome = inactive
myo [DRSC17174] — stable assay Renilla, run 1 (luminescence) = 6686; stable assay firefly, run 1 (luminescence) = 3.37e5; Outcome = inactive
Mocs1 [DRSC11225] — stable assay Renilla, run 1 (luminescence) = 4840; stable assay firefly, run 1 (luminescence) = 3.41e5; Outcome = inactive
